Experimental data taken from US11371097B2, “Articles for diagnosis of liver fibrosis” (THE GOVERNMENT OF THE UNITED STATES, as represented by THE …, priority 2015, dated 2022).
“And” between values parts separate entries of the source, which are not always exact repeats. Identical values can stand only once.

System: 67 genes on the fibrosis gene panel
Experiment: Multiplexed fibrosis gene panel (QuantiGene 2.0 Plex / Bioplex) on liver RNA
Conditions: for Gapdh / Hprt1 / Ppib: housekeeping normalization gene, liver RNA, individual animals, Carbon Tetrachloride 200, Bromobenzene 785, Dexamethasone 1 mg/kg
[1] = 4,4′-MDA 22 mg/kg, animals 89-92
[2] = 4,4′-MDA 59.7 mg/kg, animals 93-96
[3] = 4,4′-MDA 162 mg/kg, animals 97-100
[4] = Carbon Tetrachloride 200 mg/kg, animal 54
[5] = Allyl Alcohol 9.7 mg/kg, animals 9-12
[6] = Allyl Alcohol 20.9 mg/kg, animals 13-16
[7] = Allyl Alcohol 45 mg/kg, animals 17, 18, 20

## Nc1ccc(Cc2ccc(N)cc2)cc1 [4,4′-methylenedianiline]
[1]
  Gapdh (housekeeping normalization gene): 2112 and 2068 and 1825.5 and 1732.5
  Hprt1 (housekeeping normalization gene): 577.5 and 739.8 and 496.5 and 405.5
  Ppib (housekeeping normalization gene): 1429.5 and 1416.3 and 1158 and 1094.3
[2]
  Gapdh (housekeeping normalization gene): 2384 and 3133 and 2922.5 and 2508
  Hprt1 (housekeeping normalization gene): 1089.8 and 1052.3 and 1451 and 2073.5
  Ppib (housekeeping normalization gene): 1414.8 and 1548.8 and 1852 and 1909.5
[3]
  Gapdh (housekeeping normalization gene): 2700.5 and 2891.3 and 2103.5 and 2272
  Hprt1 (housekeeping normalization gene): 2119.3 and 2624 and 1897.8 and 2070.5
  Ppib (housekeeping normalization gene): 1795.8 and 2013.5 and 1461 and 1412.5

## ClC(Cl)(Cl)Cl [carbon tetrachloride]
[4]
  Gapdh (housekeeping normalization gene): 2379.5
  Hprt1 (housekeeping normalization gene): 569
  Ppib (housekeeping normalization gene): 1274.8
  Gapdh: 2608 and 2613.3 and 2661.3
  Hprt1: 735.3 and 656 and 561.5
  Ppib: 1972.8 and 1801.5 and 1853.8

## C[C@@H]1C[C@H]2[C@@H]3CCC4=CC(=O)C=C[C@]4(C)[C@@]3(F)[C@@H](O)C[C@]2(C)[C@@]1(O)C(=O)CO [dexamethasone]
  Gapdh: 2151.5 and 1813.3 and 2471 and 3013.3
  Hprt1: 324.3 and 278.5 and 478.5 and 537.5
  Ppib: 1332.3 and 982.3 and 1040 and 1524.8

## allyl alcohol
[5]
  Gapdh (housekeeping normalization gene): 1566.3 and 1899 and 2050.3 and 1558
  Hprt1 (housekeeping normalization gene): 431.3 and 482.5 and 455 and 501.3
  Ppib (housekeeping normalization gene): 1091.5 and 1442.5 and 1395.5 and 1320.5
[6]
  Gapdh (housekeeping normalization gene): 1911.5 and 2293 and 2276 and 1773.8
  Hprt1 (housekeeping normalization gene): 593.8 and 565 and 581 and 463.5
  Ppib (housekeeping normalization gene): 1609 and 1773.5 and 1742.5 and 1158
[7]
  Hprt1 (housekeeping normalization gene): 547.5 and 896.8 and 740
  Ppib (housekeeping normalization gene): 1372.8 and 2253.5 and 1995.8

## Brc1ccccc1 [bromobenzene]
  Gapdh: 2931.8 and 2799.3 and 2968.3 and 2811
  Hprt1: 1715 and 1739.5 and 1380 and 1716
  Ppib: 1675.5 and 1900 and 1655.3 and 1677.3
